No constants are given. Whether binding was seen depends on the method and setting. For part of these data: Binding seen in cells or lysates may run through a third protein. Some binding calls cover weakened binding; strength is not graded here. For part of these data: Where a sequence is shown, tags or fusion partners need not be part of it.
T1: Mis18-3Flag (S. pombe) (UniProt Q9P802)
T1 sequence: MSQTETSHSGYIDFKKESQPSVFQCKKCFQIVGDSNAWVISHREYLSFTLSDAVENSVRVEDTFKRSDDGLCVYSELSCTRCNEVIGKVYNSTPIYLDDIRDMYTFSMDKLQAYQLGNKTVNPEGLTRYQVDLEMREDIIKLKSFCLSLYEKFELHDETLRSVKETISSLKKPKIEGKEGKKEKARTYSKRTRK

Chains of the proteins cited; added tags and fusions are not shown. Lines headed by an entry give the natural chain unless they say otherwise; changes in a name come on top.
UniProt Q09825, whole entry: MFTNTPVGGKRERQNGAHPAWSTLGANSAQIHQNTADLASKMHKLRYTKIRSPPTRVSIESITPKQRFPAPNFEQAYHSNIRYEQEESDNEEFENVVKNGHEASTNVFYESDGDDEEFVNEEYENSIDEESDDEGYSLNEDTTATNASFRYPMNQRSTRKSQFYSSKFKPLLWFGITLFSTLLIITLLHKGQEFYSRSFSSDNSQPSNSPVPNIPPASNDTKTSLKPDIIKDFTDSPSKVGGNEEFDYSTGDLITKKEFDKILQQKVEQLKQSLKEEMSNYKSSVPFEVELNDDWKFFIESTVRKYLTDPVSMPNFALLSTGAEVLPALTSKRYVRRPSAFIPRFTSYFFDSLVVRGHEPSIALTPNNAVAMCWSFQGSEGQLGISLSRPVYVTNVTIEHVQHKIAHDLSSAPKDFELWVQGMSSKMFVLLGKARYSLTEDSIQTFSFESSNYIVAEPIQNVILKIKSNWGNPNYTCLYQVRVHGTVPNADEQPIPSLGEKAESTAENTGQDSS


Experiments:
Mis18-3Flag (S. pombe) = target: T1, Mis18-3Flag (S. pombe); assay: co-IP
[1] = target: 6His-MBP-Sad1(2-167) (S. pombe) (UniProt Q09825); assay: pull-down
[2] = target: 6His-Sad1(2-167) (S. pombe) (UniProt Q09825); assay: SEC
Sad1-3Flag (S. pombe) = Sad1-3Flag (S. pombe) (UniProt Q09825); assay: co-IP

binding [1]	Molecule	further results
	Sad1-3V5 (C-terminally 3xV5-tagged Sad1) (from UniProt Q09825 1-514)	binding (Mis18-3Flag (S. pombe)): binds
no binding (tested: 5 μM)	6His-3C-Mis18(1-168) (domain or fragment, UniProt Q9P802 1-168) MSQTETSHSGYIDFKKESQPSVFQCKKCFQIVGDSNAWVISHREYLSFTLSDAVENSVRVEDTFKRSDDGLCVYSELSCTRCNEVIGKVYNSTPIYLDDIRDMYTFSMDKLQAYQLGNKTVNPEGLTRYQVDLEMREDIIKLKSFCLSLYEKFELHDETLRSVKETIS	
	6His-Mis18 full length (protein, UniProt Q9P802 1-194) MSQTETSHSGYIDFKKESQPSVFQCKKCFQIVGDSNAWVISHREYLSFTLSDAVENSVRVEDTFKRSDDGLCVYSELSCTRCNEVIGKVYNSTPIYLDDIRDMYTFSMDKLQAYQLGNKTVNPEGLTRYQVDLEMREDIIKLKSFCLSLYEKFELHDETLRSVKETISSLKKPKIEGKEGKKEKARTYSKRTRK	binding [2]: binds
	Mis18-3V5 (protein, UniProt Q9P802 1-194) MSQTETSHSGYIDFKKESQPSVFQCKKCFQIVGDSNAWVISHREYLSFTLSDAVENSVRVEDTFKRSDDGLCVYSELSCTRCNEVIGKVYNSTPIYLDDIRDMYTFSMDKLQAYQLGNKTVNPEGLTRYQVDLEMREDIIKLKSFCLSLYEKFELHDETLRSVKETISSLKKPKIEGKEGKKEKARTYSKRTRK	binding (Sad1-3Flag (S. pombe)): binds
no binding (tested: 5 μM)	6His-3C-Mis18(1-120) (domain or fragment, UniProt Q9P802 1-120) MSQTETSHSGYIDFKKESQPSVFQCKKCFQIVGDSNAWVISHREYLSFTLSDAVENSVRVEDTFKRSDDGLCVYSELSCTRCNEVIGKVYNSTPIYLDDIRDMYTFSMDKLQAYQLGNKT	
no binding (tested: 5 μM)	6His-msfGFP-TEV-Mis18(121-194) (domain or fragment, UniProt Q9P802 121-194) VNPEGLTRYQVDLEMREDIIKLKSFCLSLYEKFELHDETLRSVKETISSLKKPKIEGKEGKKEKARTYSKRTRK	

— publication doi:10.1101/2023.07.03.547485 (bioRxiv, 2023)
